{"source": "PubChem BioAssay AID504467", "about": "(National Center for Advancing Translational Sciences (NCATS), 2011)", "note": "About 7,700 (2.3%) of roughly 330,000 compounds were called active. Inconclusive results, whose numbers are uncertain, are shown with a selection of clear calls. Calls follow the shape of the dose curve; as a rule, active = well fitted inhibition curve with a large enough effect; inconclusive = small, poorly fitted or top-dose-only effect, or effect the other way; inactive = flat fitted curve, though single readings scatter. Where the call is inconclusive, the potency comes from a doubtful curve fit. % is scaled to controls: 0 for no effect and ±100 for the full control effect; potency is read from the fitted curve at half-maximal effect."}
{"test": "qHTS screen for small molecules that inhibit ELG1-dependent DNA repair in human embryonic kidney (HEK293T) cells expressing luciferase-tagged ELG1; also: nearly all actives have a fitted effect of over 55% in size", "details": "HEK293T ELG1-luciferase reporter, luminescence, 16 h, DNA damage induced by 5-fluorouridine; activity change, negative = inhibition: at 46.1 µM (top of the series)", "how_it_was_run": "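In this reporter screen, reduction of luminescence relative to DMSO vehicle indicated activity. Compounds and 5-fluorouridine were added together to 2,000 cells per well, incubated for 16 hr at 37 °C, then developed with ONE-Glo.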"}
{"smiles": "CCOc1ccc(S(=O)(=O)N2CCCC(C(=O)NCCN3CCOCC3)C2)cc1Cl", "note": "(stereo not given)", "activity change, negative = inhibition": "inactive: -7.42%"}
{"smiles": "Cc1ccc(C(=O)N/C(=C\\c2ccc(-c3ccc(Cl)cc3)o2)C(=O)NCCCN(C)C)cc1", "Potency": "inconclusive: 29.1 µM [inhibitor, single point]"}
{"smiles": "Cc1ccc(NC(=S)NCc2cccn2C)cc1", "activity change, negative = inhibition": "inactive: 5.35%"}
{"smiles": "Cn1c(=O)cc(SCC(=O)NCCCN2CCOCC2)c2ccccc21", "Potency": "inconclusive: 8.2 µM [activator, partial curve, poor fit]"}
{"smiles": "Brc1cccc2sc(N3CCCC3)nc12", "Potency": "inconclusive: 18.3 µM [activator, partial curve]"}
{"smiles": "Cc1ccc(C)c2[nH]c(=O)c(CCNC(=O)c3cccs3)cc12", "Potency": "inconclusive: 29.1 µM [inhibitor, single point]"}
{"smiles": "COc1ccc(NC(=O)CN2CCN(CC(=O)Nc3ccccc3Cl)CC2)cc1Cl", "Potency": "inconclusive: 23.1 µM [inhibitor, partial curve]"}
{"smiles": "CCCN1C(=O)SC(CC(=O)Nc2cccc3ccccc23)C1=O", "note": "(stereo not given)", "Potency": "inconclusive: 18.4 µM [activator, partial curve, poor fit]"}
{"smiles": "CC(=O)Oc1ccc(C(=O)Nc2ccccc2NC(=O)c2ccc(OC(C)=O)cc2)cc1", "activity change, negative = inhibition": "inactive: 0%"}
{"smiles": "O=C(Cc1ccccc1)N/N=C/c1ccc2c(c1)OCO2", "Potency": "inconclusive: 13 µM [activator, partial curve]"}
{"smiles": "O=C(CN1C(=O)c2cccnc2Oc2ccc(Cl)cc21)NCCCc1ccccc1", "Potency": "active: 18.3 µM"}
{"smiles": "CCNC(=O)CSc1nnc(-c2ccccc2Br)n1-c1cccc(C(F)(F)F)c1", "activity change, negative = inhibition": "inactive: 7.71%"}
{"smiles": "Cc1nc2ccc(NC(=S)NC3CCCCC3)cc2nc1C", "Potency": "inconclusive: 6.51 µM [activator, single point]"}
{"smiles": "CCOC(=O)c1cnc2ccc(C)cc2c1Sc1ccccc1C(=O)OC", "Potency": "inconclusive: 4.61 µM [inhibitor, single point]"}
{"smiles": "O=C(Cc1ccc(Cl)cc1)Nc1ccc(-c2cc3ccccc3oc2=O)c(Cl)c1", "Potency": "inconclusive: 5.17 µM [inhibitor, partial curve, poor fit]"}
{"smiles": "CC1CCN(C(=S)NC(=O)c2cccs2)CC1", "activity change, negative = inhibition": "inactive: -25.3%"}
{"smiles": "Cc1ccc(S(=O)(=O)NC2(C(F)(F)F)NC(=O)N(c3ccccc3F)C2=O)cc1", "note": "(stereo not given)", "activity change, negative = inhibition": "inactive: -8.4%"}
{"smiles": "CCCOc1ccc(/C=N/n2nnnc2N)cc1OC", "Potency": "inconclusive: 35.5 µM [activator, single point]"}
{"smiles": "O=C(N/N=C/c1ccc(Cl)c([N+](=O)[O-])c1)c1cnccn1", "Potency": "inconclusive: 32.6 µM [activator, partial curve, poor fit]"}
{"smiles": "CNCc1cc(Cl)cc(OC)c1OC(C)C", "activity change, negative = inhibition": "inactive: -1.77%"}
